In PMC3827223, “Bioorthogonal Small Molecule Imaging Agents Allow Single-Cell Imaging of MET” (PLoS ONE, 2013):

Columns and labels:
Type in all cases: cell-based, human
[1] = system: MET in OVCA429 cells; experiment: Fixed cell fluorescence imaging with Tz-CFDA and MET immunostaining, OVCA429; details: 40 nM, then 1 μM Tz-CFDA
[2] = system: OVCA429 cells; experiment: Live cell fluorescence imaging, two-step vs one-step labeling, OVCA429; details: live OVCA429 cells, 40, 200 and 1000 nM, 30 min; TCO agent followed by 1 μM Tz-CFDA
[3] = system: MET, PDGFRα, RON, AXL, KDR in OVCA429 cells; experiment: Fixed cell imaging of Foretinib-TCO/Tz-CFDA with immunostaining of 5 RTKs; details: 200 nM, then 1 μM Tz-CFDA

Structure (SMILES): COc1cc2c(Oc3ccc(NC(=O)C4(C(=O)Nc5ccc(F)cc5)CC4)cc3F)ccnc2cc1OCCCN1CCOCC1 [Foretinib, N1’-[3-fluoro-4-[[6-methoxy-7-(3-morpholinopropoxy)-4-quinolinyl]oxy]phenyl]-N1-(4-fluorophenyl)cyclopropane-1,1-dicarboxamide, reference compound]
- background signal of unlabeled control with Tz-CFDA [1]: low background signal

Structure (SMILES): COc1cc2c(Oc3ccc(NC(=O)C4(C(=O)Nc5ccc(F)cc5)CC4)cc3F)ccnc2cc1OCCCN1CCN(C(=O)CCc2ccc3n2[B-](F)(F)[N+]2=C(C)C=C(C)C2=C3)CC1 [Foretinib-BODIPY-FL, 5,5-difluoro-7-(3-(4-(3-((4-(2-fluoro-4-(1-((4-fluorophenyl)carbamoyl)cyclopropanecarboxamido)phenoxy)-6-methoxyquinolin-7-yl)oxy)propyl)piperazin-1-yl)-3-oxopropyl)-1,3-dimethyl-5H-dipyrrolo[1,2-c:2',1'-f][1,3,2]diazaborinin-4-ium-5-uide]
- cellular fluorescence signal / staining [2]: cellular staining only at the highest concentration tested

Structure (SMILES): COc1cc2c(Oc3ccc(NC(=O)C4(C(=O)Nc5ccc(F)cc5)CC4)cc3F)ccnc2cc1OCCCN1CCN(C(=O)OC2CC/C=C/CCC2)CC1 (stereo not shown) [Foretinib-TCO, (E)-cyclooct-4-en-1-yl 4-(3-((4-(2-fluoro-4-(1-((4-fluorophenyl)carbamoyl)cyclopropanecarboxamido)phenoxy)-6-methoxyquinolin-7-yl)oxy)propyl)piperazine-1-carboxylate]
- cellular fluorescence signal / staining [2]: dose-dependent increase in cellular fluorescence signal
- co-localization with membrane signal from MET, AXL and RON antibody staining [3]: good co-localization
- co-localization with PDGFRα and KDR antibody staining ([3]; low expression of these proteins in OVCA429): less co-localization

Structure (SMILES): O=C(NCCn1cc(-c2cnc3nnn(Cc4ccc5ncccc5c4)c3n2)cn1)OC1CC/C=C/CCC1 (stereo not shown) [PF04217903-TCO, (E)-cyclooct-4-en-1-yl (2-(4-(1-(quinolin-6-ylmethyl)-1H-[1,2,3]triazolo[4,5-b]pyrazin-6-yl)-1H-pyrazol-1-yl)ethyl)carbamate]
- co-localization of drug and MET antibody co-staining [1]: superb co-localization
- Manders correlation coefficient of colocalization with MET antibody staining ([1]; selected image): 0.969
